No constants are given. Whether binding was seen depends on the method and setting. Some binding calls cover weakened binding; strength is not graded here.
Molecular target: ERK3 (UniProt Q16659)
Assay: trans-SUMOylation, coexpression with EGFP-SUMO1 in HEK293 cells, western blot

By UniProt entry, the sequences of proteins in these tests, tags left out.
UniProt Q16659: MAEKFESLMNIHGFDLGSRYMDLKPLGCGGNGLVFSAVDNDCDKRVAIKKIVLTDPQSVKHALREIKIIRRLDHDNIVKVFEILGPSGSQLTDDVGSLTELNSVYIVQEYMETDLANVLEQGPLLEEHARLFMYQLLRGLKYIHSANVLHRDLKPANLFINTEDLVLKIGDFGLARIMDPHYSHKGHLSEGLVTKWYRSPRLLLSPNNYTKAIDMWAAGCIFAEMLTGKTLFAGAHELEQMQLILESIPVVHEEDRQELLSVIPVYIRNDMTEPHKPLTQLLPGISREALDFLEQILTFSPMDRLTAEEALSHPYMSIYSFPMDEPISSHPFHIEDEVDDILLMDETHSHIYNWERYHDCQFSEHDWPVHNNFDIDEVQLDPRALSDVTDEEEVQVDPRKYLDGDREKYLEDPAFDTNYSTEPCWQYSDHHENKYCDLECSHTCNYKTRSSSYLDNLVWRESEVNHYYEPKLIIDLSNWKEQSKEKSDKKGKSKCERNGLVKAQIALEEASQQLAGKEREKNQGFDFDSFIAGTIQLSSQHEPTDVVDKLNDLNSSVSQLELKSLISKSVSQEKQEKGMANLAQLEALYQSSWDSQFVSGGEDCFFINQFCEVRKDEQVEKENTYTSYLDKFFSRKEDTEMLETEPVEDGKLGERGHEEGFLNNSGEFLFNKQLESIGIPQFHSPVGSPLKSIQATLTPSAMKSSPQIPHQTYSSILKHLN
UniProt Q8IW41: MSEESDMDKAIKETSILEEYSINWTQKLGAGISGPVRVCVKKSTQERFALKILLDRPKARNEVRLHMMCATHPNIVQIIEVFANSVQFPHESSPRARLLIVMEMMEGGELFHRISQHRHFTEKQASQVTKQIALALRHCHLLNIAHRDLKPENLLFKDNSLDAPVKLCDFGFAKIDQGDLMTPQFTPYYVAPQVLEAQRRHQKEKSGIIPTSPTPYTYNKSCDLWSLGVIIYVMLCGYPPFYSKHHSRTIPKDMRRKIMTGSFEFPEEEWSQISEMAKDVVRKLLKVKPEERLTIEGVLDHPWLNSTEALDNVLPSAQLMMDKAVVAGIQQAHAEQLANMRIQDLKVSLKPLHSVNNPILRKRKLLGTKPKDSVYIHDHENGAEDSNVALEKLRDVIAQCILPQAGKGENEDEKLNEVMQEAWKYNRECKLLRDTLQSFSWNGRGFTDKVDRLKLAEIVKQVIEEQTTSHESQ

binding: binds
Substance: MK5 (from UniProt Q8IW41 1-473) (enzyme)

— patent publication US20110124011A1
